No constants are given. Whether binding was seen depends on the method and setting. Binding seen in cells or lysates may run through a third protein. Some results given as binding are weak or reduced against the parent protein; the word gives no strength. Where a sequence is shown, tags or fusion partners need not be part of it.
Target: FLAG-labeled full-length IGF2BP3 (UniProt O00425)
Assay: co-IP; HA-MKRN2 and FLAG-IGF2BP3; immunoprecipitation after overexpression or knockdown of the lncRNA PCAT5; RIPA lysis with protease and ribonuclease inhibitor; Protein A/G magnetic beads overnight at 4 °C; washes with NT2 buffer

By UniProt entry, the sequences of proteins in these tests, tags left out.
UniProt O00425: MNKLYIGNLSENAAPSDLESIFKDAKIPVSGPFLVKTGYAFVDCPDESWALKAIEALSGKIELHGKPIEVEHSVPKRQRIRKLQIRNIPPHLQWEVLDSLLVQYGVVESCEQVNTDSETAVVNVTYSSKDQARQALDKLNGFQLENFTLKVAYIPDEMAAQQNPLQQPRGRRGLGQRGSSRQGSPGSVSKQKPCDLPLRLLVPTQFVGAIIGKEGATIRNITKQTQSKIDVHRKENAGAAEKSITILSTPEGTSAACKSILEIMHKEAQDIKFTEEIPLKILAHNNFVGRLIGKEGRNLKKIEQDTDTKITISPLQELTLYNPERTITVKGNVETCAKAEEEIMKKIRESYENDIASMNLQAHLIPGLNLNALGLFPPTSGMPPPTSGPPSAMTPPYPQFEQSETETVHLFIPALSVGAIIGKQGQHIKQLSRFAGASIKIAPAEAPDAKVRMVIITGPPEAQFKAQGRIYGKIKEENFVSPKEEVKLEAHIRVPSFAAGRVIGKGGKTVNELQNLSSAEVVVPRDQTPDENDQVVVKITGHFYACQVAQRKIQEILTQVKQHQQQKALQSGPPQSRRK

B1: HA-labeled full-length MKRN2 (protein, UniProt Q9H000 1-416)
chain: MSTKQITCRYFMHGVCREGSQCLFSHDLANSKPSTICKYYQKGYCAYGTRCRYDHTRPSAAAGGAVGTMAHSVPSPAFHSPHPPSEVTASIVKTNSHEPGKREKRTLVLRDRNLSGMAERKTQPSMVSNPGSCSDPQPSPEMKPHSYLDAIRSGLDDVEASSSYSNEQQLCPYAAAGECRFGDACVYLHGEVCEICRLQVLHPFDPEQRKAHEKICMLTFEHEMEKAFAFQASQDKVCSICMEVILEKASASERRFGILSNCNHTYCLSCIRQWRCAKQFENPIIKSCPECRVISEFVIPSVYWVEDQNKKNELIEAFKQGMGKKACKYFEQGKGTCPFGSKCLYRHAYPDGRLAEPEKPRKQLSSQGTVRFFNSVRLWDFIENRESRHVPNNEDVDMTELGDLFMHLSGVESSEP
How did the binding turn out when B1 was run?
The binding was “binds”.

Reference: publication PMC10987620
